Measured values from paper PMC5398542.
Results are given in words; binding and its absence hold for the method and conditions named. In cells and extracts the contact can be indirect. Some results given as binding are weak or reduced against the parent protein; the word gives no strength.

Protein sequences, listed by entry. Tags and fused reporters are not part of them.
UniProt O89090: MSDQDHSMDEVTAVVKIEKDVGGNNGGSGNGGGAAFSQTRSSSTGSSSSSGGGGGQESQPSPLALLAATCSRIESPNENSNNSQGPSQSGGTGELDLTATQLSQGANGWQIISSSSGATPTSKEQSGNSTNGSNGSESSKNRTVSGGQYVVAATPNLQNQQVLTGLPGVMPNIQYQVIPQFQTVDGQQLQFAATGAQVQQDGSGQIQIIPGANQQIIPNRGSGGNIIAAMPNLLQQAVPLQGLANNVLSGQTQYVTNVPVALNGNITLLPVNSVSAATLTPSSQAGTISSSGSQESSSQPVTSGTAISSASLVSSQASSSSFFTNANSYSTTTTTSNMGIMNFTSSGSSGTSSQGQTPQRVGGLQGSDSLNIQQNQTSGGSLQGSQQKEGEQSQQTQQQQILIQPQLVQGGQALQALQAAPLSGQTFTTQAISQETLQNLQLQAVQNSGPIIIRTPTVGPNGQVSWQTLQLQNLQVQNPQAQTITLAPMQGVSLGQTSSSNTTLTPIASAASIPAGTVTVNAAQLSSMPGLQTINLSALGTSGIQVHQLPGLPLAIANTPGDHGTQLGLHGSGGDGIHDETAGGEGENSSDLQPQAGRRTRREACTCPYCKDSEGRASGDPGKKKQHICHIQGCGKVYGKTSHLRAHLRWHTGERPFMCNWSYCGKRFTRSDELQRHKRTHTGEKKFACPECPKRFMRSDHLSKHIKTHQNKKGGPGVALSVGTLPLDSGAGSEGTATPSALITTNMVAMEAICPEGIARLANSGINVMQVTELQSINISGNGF
UniProt Q62432: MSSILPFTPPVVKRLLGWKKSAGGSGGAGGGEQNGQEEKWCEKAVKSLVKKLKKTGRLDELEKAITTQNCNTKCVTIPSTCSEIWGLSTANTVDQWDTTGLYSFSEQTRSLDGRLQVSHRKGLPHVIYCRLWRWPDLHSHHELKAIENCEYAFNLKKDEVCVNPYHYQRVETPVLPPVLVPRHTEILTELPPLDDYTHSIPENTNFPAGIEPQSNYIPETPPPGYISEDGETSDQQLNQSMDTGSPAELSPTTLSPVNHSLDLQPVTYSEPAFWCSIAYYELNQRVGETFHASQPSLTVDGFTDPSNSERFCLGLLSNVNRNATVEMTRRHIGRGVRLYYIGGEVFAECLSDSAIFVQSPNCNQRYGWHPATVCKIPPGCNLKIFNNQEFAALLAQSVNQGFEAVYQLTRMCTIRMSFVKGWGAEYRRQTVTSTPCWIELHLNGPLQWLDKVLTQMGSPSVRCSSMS

Columns and labels:
[1] = target: SP1 (mouse (endogenous in tsA58-AVM)) (UniProt O89090); assay: condition: only cells treated with BSA, without TGFβ1; co-IP; as a1, but cells treated with BSA instead of TGFβ1 for 30 minutes; IP with anti-SP1 antibody, Western for SP1 and SMAD2
[2] = target: SP1 (mouse (endogenous in tsA58-AVM)) (UniProt O89090); assay: co-IP; tsA58-AVM cells under the restrictive condition treated with 5 ng/ml TGFβ1 for 30 minutes; lysate (50mM Tris-HCl pH 7.4, 0.1% Triton, 0.1% NP40, 0.1% Tween-20, 5mM EDTA, 10% glycerol) incubated with anti-SP1 antibody overnight at 4°C, Protein A/G beads; Western for SP1 and SMAD2

binding [1]: no binding
binding [2]: binds
Substance: SMAD2 (from UniProt Q62432 1-467)
